# Some results were stated once for a whole list of compounds, not compound by compound.
# By UniProt entry, the sequences of proteins in these tests, tags left out. Where a name states a change or a piece, a line headed by the entry shows the natural chain unless it says otherwise.
# UniProt Q5S007: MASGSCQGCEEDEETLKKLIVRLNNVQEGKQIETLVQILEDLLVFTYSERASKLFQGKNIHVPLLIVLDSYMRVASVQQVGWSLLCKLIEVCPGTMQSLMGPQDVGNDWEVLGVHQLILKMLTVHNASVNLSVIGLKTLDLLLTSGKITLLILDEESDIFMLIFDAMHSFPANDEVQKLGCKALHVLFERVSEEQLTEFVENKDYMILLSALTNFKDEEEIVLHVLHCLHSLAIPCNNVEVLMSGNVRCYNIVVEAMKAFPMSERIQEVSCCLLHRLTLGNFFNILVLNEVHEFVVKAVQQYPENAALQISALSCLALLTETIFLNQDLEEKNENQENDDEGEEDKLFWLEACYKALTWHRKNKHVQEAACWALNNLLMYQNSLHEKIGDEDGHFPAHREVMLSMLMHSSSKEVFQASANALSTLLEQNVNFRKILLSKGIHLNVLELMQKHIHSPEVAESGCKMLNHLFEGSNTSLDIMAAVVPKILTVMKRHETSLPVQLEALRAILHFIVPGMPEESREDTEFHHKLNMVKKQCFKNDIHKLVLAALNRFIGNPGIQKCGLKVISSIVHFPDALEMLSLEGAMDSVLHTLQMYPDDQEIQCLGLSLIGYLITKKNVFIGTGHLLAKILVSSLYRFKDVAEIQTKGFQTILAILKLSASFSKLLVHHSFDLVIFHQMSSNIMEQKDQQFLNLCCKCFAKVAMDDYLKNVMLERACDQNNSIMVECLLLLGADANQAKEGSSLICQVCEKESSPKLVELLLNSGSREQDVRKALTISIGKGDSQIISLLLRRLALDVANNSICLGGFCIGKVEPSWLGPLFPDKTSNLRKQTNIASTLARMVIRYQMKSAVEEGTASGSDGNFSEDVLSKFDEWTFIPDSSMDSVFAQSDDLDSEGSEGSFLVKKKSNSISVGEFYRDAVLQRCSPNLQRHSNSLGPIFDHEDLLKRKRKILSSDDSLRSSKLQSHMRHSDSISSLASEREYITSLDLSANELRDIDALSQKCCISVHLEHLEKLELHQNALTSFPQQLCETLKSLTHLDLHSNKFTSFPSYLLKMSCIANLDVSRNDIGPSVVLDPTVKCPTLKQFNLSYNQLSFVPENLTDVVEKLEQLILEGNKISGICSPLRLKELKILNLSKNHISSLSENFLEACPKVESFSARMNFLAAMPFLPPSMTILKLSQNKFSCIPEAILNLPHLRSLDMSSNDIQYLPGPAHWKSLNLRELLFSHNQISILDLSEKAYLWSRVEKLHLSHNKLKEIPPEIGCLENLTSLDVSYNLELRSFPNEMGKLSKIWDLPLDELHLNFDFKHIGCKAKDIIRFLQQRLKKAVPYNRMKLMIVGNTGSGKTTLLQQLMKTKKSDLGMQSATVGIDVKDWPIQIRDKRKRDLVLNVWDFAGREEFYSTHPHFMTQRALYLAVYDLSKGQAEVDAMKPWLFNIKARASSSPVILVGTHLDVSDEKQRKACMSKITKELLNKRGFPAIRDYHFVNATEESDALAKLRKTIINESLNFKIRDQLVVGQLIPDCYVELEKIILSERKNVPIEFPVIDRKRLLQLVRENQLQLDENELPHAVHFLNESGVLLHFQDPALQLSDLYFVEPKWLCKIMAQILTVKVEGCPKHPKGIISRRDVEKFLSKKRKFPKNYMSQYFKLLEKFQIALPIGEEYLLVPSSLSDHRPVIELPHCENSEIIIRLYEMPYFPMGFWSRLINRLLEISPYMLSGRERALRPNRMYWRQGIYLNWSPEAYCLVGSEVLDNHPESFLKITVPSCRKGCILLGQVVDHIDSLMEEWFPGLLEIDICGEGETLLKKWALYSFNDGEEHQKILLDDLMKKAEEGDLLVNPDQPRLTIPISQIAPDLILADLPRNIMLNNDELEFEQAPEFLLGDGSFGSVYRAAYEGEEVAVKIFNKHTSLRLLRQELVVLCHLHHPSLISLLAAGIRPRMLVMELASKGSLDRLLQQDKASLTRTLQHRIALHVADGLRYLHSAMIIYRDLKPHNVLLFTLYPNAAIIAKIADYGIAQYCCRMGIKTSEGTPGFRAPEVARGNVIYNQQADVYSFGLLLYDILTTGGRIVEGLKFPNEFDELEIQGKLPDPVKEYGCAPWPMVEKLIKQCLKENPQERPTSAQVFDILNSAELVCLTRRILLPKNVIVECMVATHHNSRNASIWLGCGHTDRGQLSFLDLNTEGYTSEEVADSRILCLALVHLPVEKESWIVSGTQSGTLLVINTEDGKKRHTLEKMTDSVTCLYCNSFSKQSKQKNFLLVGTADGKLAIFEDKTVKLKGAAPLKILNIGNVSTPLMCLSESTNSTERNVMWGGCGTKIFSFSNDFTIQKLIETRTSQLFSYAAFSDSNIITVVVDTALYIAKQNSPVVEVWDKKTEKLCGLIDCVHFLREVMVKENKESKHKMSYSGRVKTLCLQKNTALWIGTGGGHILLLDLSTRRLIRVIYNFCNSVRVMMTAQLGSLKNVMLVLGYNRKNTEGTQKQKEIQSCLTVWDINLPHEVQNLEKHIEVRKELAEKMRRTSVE
# Molecular target: T1, LRRK2 (Wt) and LRRK2 (G2019) (Homo sapiens, UniProt Q5S007)
# T1 construct: fused on or other part: GST tag, inferred from the Eu-Anti-GST antibody used for detection
# Assay: TR-FRET LanthaScreen Eu Kinase Binding Assay, LRRK2
# Settings: one value class stated for wt and G2019 LRRK2 together; 10 nM Kinase Tracer 236; read-out: IC50, inhibitory activity toward LRRK2 (Wt) and LRRK2 (G2019)
row,SMILES,IC50
1,"CSc1n[nH]c2c1NC(c1c(F)cccc1F)=Nc1ccccc1-2 [Compound 146, 5-(2,6-difluorophenyl)-3-(methylthio)-1,4-dihydrobenzo[d]pyrazolo [3,4-f][1,3]diazepine]",< 10 nM
2,"Fc1cccc(F)c1C1=Nc2cn[nH]c2-c2cc(Cl)ncc2N1 [Compound 147, 9-chloro-5-(2,6-difluorophenyl)-1,6-dihydropyrazolo[4,3-d]pyrido[4,3-f][1,3]diazepine]",< 10 nM
3,"Fc1cccc(F)c1C1=Nc2cn[nH]c2-c2cc(C3=CCOCC3)ncc2N1 [Compound 149, 5-(2,6-difluorophenyl)-9-(3,6-dihydro-2H-pyran-4-yl)-1,6-dihydropyrazolo[4,3-d]pyrido[4,3-f][1,3]diazepine]",< 10 nM
4,"Cc1ccc2c(c1)-c1[nH]ncc1NC(c1c(Cl)cccc1Cl)=N2 [Compound 152, 5-(2,6-dichlorophenyl)-9-methyl-1,4-dihydrobenzo[d]pyrazolo[3,4-f][1,3]diazepine]",< 10 nM
5,"Cc1cc2c(cc1C(=O)O)NC(c1c(F)cccc1F)=Nc1cn[nH]c1-2 [Compound 156, 5-(2,6-difluorophenyl)-9-methyl-1,6-dihydrobenzo[d]pyrazolo[3,4-f][1,3]diazepine-8-carboxylic acid]",< 10 nM
6,"Cc1cc2c(cc1C(=O)NC1CCOCC1)N=C(c1c(F)cccc1F)Nc1cn[nH]c1-2 [Compound 157, 5-(2,6-difluorophenyl)-9-methyl-N-(tetrahydro-2H-pyran-4-yl)-1,4-dihydrobenzo[d]pyrazolo[3,4-f][1,3]diazepine-8-carboxamide]",< 10 nM
7,"COc1ccc2c(c1)N=C(c1c(F)cccc1Cl)Nc1cn[nH]c1-2 [Compound 158, 5-(2-chloro-6-fluorophenyl)-8-methoxy-1,4-dihydrobenzo[d]pyrazolo[3,4-f][1,3]diazepine]",< 10 nM
8,"Fc1cccc(F)c1C1=Nc2cc(-c3ccn[nH]3)ccc2-c2[nH]ncc2N1 [Compound 159, 5-(2,6-difluorophenyl)-8-(1H-pyrazol-5-yl)-1,4-dihydrobenzo[d]pyrazolo[3,4-f][1,3]diazepine]",< 10 nM
9,"Cc1ccc2c(c1)-c1[nH]ncc1NC(c1c(F)cccc1Br)=N2 [Compound 161, 5-(2-bromo-6-fluorophenyl)-9-methyl-1,4-dihydrobenzo[d]pyrazolo[3,4-f][1,3]diazepine]",< 10 nM
10,"CC(=O)Nc1cccc(-c2ccc3c(c2)N=C(c2c(F)cccc2F)Nc2cn[nH]c2-3)c1 [Compound 162, N-(3-(5-(2,6-difluorophenyl)-1,4-dihydrobenzo[d]pyrazolo[3,4-f][1,3]diazepin-8-yl)phenyl)acetamide]",< 10 nM
11,"Cc1ccc2c(c1)-c1[nH]ncc1NC(c1c(F)cccc1I)=N2 [Compound 163, 5-(2-fluoro-6-iodophenyl)-9-methyl-1,4-dihydrobenzo[d]pyrazolo[3,4-f][1,3]diazepine]",< 10 nM
12,"COC(=O)Nc1ccc2c(c1)N=C(c1c(F)cccc1F)Nc1c[nH]nc1-2 [Compound 164, methyl(5-(2,6-difluorophenyl)-2,4-dihydrobenzo[d]pyrazolo[3,4-f][1,3]diazepin-8-yl)carbamate]",< 10 nM
13,"COC(=O)Nc1ccc2c(c1)-c1[nH]ncc1NC(c1c(F)cccc1F)=N2 [Compound 165, methyl(5-(2,6-difluorophenyl)-1,4-dihydrobenzo[d]pyrazolo[3,4-f][1,3]diazepin-9-yl)carbamate]",< 10 nM
14,"Cc1cc(F)c2c(c1)-c1[nH]nc(Cl)c1NC(c1c(F)cccc1F)=N2 [Compound 166, 3-chloro-5-(2,6-difluorophenyl)-7-fluoro-9-methyl-1,4-dihydrobenzo[d]pyrazolo[3,4-f][1,3]diazepine]",< 10 nM
15,"CCc1cc(F)c2c(c1)-c1[nH]ncc1NC(c1c(F)cccc1F)=N2 [Compound 167, 5-(2,6-difluorophenyl)-9-ethyl-7-fluoro-1,4-dihydrobenzo[d]pyrazolo[3,4-f][1,3]diazepine]",< 10 nM

# Reference: patent US20220380374A1, “1,4-DIHYDROBENZO[D]PYRAZOLO[3,4-F][1,3]DIAZEPINE DERIVATIVES AND RELATED COMPOUNDS AS LRRK2, NUAK1 AND/OR TYK2 KINASE MODULATORS FOR THE TREATMENT OF E.G. AUTOIMMUNE DISEASE” (Origenis GMBH, priority 2019, published 2022)
